This series deals with hERαCDE (human estrogen receptor alpha E181-P552, DBD+LBD) WT (Homo sapiens) (UniProt P03372). Nature of the series: binding assay. The note with it: size exclusion chromatography and SAXS of complex with E2, TIF2 peptide; purified recombinant protein. For orientation: In gel filtration, larger molecules generally elute earlier.

By UniProt entry, the sequences of proteins in these tests, tags left out. Residues count along the entry.
UniProt P03372, 181-552: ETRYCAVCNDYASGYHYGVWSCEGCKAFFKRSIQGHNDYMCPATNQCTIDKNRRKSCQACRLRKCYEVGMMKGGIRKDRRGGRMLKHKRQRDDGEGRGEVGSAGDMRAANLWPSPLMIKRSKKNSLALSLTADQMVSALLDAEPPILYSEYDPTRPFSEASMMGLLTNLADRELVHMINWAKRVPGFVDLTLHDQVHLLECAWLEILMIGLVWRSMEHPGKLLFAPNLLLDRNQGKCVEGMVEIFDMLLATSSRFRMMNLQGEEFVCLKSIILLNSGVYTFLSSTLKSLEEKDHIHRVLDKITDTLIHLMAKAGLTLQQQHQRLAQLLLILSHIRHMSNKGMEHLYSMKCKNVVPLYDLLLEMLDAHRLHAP

For at least one entry, the source does not settle the construct or the ends of the probe.

For the sequence “TAGGTACACGTGACCTGCG / CGCAGGTCACTGTGACCTA [ERE-DNA used for hERαcomplex]”, the binding result is “binds”.

For the origin of these results see patent US20200166530.
